The shares of active, inactive and inconclusive entries below differ from those in the screen. Potencies of inconclusive entries are doubtful fits and often do not repeat. Calls of active or inactive are those of the source. The call rests on the fitted dose curve; in most records, active means well fitted activation curve with a large enough effect; inconclusive means small, poorly fitted or top-dose-only effect; inactive means no such curve, though single readings can be large or run the other way.
Experiment: qHTS assay for re-activators of p53 using a Luc reporter: Hit Validation; further: nearly all actives have a fitted effect of over 75% in size
Conditions: p53-responsive luciferase reporter cells, luminescence, H1299 line expressing heat-sensitive Ala138Val p53; series mostly up to 46.1 µM
Method in brief: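 H1299 (p53-null) cells stably carrying p53-A138V and a BP100-luciferase reporter, 1000 cells/well, treated 24 h at 37 deg C. Compounds at several concentrations, 1:5 dilution; nocodazole control; luminescence read after 10 min with detection reagent.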
Potency means the concentration at half of the fitted maximal effect.

| Compound | Potency |
| --- | --- |
| COc1ccc(C(c2nnnn2CCc2ccccc2)N2CCN(C3CCCC3)CC2)cc1 (centres undefined) | inconclusive: 46100 nM [activator, single point] |
| O=C(CSc1ccccc1)Nc1ccc(-c2nc3ccccc3[nH]2)cc1 | inactive |
| O=C(CCN1C(=O)NC2(CCCC2)C1=O)Nc1ccc(-c2nc3ccccc3s2)cc1 | inconclusive: 2310 nM [activator, partial curve, poor fit] |
| Cc1ccc2cc(CCNC(=O)c3ccco3)c(=O)[nH]c2c1C | active: 2310 nM |

From PubChem BioAssay AID624305 (National Center for Advancing Translational Sciences (NCATS), 2012)
